## Cell number after 72 h of treatment

Source: doi:10.1371/journal.pone.0140310, primary screening data, rounded.

Drugs:
FK866: O=C(/C=C/c1cccnc1)NCCCCC1CCN(C(=O)c2ccccc2)CC1 at 50 nM
NVP-BEZ235: Cn1c(=O)n(-c2ccc(C(C)(C)C#N)cc2)c2c3cc(-c4cnc5ccccc5c4)ccc3ncc21 at 20 nM
midostaurin: CO[C@@H]1[C@H](N(C)C(=O)c2ccccc2)C[C@H]2O[C@]1(C)n1c3ccccc3c3c4c(c5c6ccccc6n2c5c31)C(=O)NC4 at 400 nM
pazopanib: Cc1ccc(Nc2nccc(N(C)c3ccc4c(C)n(C)nc4c3)n2)cc1S(N)(=O)=O at 2000 nM
L-779450: Oc1cc(-c2nc(-c3ccccc3)[nH]c2-c2ccncc2)ccc1Cl at 1000 nM
enzastaurin: Cn1cc(C2=C(c3cn(C4CCN(Cc5ccccn5)CC4)c4ccccc34)C(=O)NC2=O)c2ccccc21 at 4000 nM
nilutamide: CC1(C)NC(=O)N(c2ccc([N+](=O)[O-])c(C(F)(F)F)c2)C1=O at 5000 nM
vismodegib: CS(=O)(=O)c1ccc(C(=O)Nc2ccc(Cl)c(-c3ccccn3)c2)c(Cl)c1 at 5000 nM
dasatinib: Cc1nc(Nc2ncc(C(=O)Nc3c(C)cccc3Cl)s2)cc(N2CCN(CCO)CC2)n1 at 20 nM

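Human melanoma cell lines in 1,536-well plates were treated with two drugs together for 72 h, then fixed, stained and imaged. Values are the number of DAPI-stained nuclei as a percentage of the DMSO control: 100 is no effect, lower means fewer cells. Every drug was used at one fixed concentration, the higher of two screened. No replicate spread is given; individual values may be noisy.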
Only some of the drugs and lines screened are listed, without regard to their results.

Drugs,C32,COLO 829,WM3619,COLO 800
pazopanib + midostaurin,92.4,85.7,58.2,28.5
enzastaurin + NVP-BEZ235,136,112,84.0,70.3
vismodegib + NVP-BEZ235,102,80.4,94.9,77.9
dasatinib + NVP-BEZ235,85.0,62.8,54.9,79.4
vismodegib + FK866,96.8,59.4,80.8,33.0
dasatinib + nilutamide,76.1,61.7,98.5,89.8
midostaurin + enzastaurin,78.7,74.5,76.5,33.5
L-779450 + enzastaurin,79.7,105,116,177
vismodegib + midostaurin,102,75.3,97.4,42.0
L-779450 + midostaurin,62.0,72.8,59.4,40.7
nilutamide + FK866,109,63.0,90.6,28.4
midostaurin + dasatinib,43.6,72.1,72.4,21.3
L-779450 + NVP-BEZ235,61.7,73.5,39.1,85.4
enzastaurin + nilutamide,91.8,96.7,107,62.4
FK866 + enzastaurin,105,60.2,67.2,24.5
dasatinib + FK866,64.1,23.7,66.7,18.7
pazopanib + NVP-BEZ235,92.0,74.0,89.9,83.1
L-779450 + nilutamide,86.9,87.1,90.2,72.0
dasatinib + vismodegib,99.7,51.6,69.0,59.1
enzastaurin + pazopanib,93.8,74.3,107,62.8
NVP-BEZ235 + nilutamide,77.8,81.3,55.3,56.5
nilutamide + midostaurin,95.5,67.0,80.5,22.1
vismodegib + L-779450,86.1,71.3,58.2,119
L-779450 + pazopanib,71.0,61.7,83.3,62.9
vismodegib + pazopanib,112,77.3,92.0,142
FK866 + L-779450,93.9,66.5,107,57.1
vismodegib + enzastaurin,118,130,151,90.6
pazopanib + dasatinib,84.8,49.5,65.5,93.0
midostaurin + NVP-BEZ235,79.0,78.8,56.9,40.0
L-779450 + dasatinib,76.5,64.6,55.8,75.0

Some entries from above, unchanged:

{"drugs": "vismodegib + pazopanib", "C32": 112, "COLO 829": 77.3, "WM3619": 92.0, "COLO 800": 142}
{"drugs": "dasatinib + nilutamide", "C32": 76.1, "COLO 829": 61.7, "WM3619": 98.5, "COLO 800": 89.8}
{"drugs": "vismodegib + FK866", "C32": 96.8, "COLO 829": 59.4, "WM3619": 80.8, "COLO 800": 33.0}
{"drugs": "pazopanib + NVP-BEZ235", "C32": 92.0, "COLO 829": 74.0, "WM3619": 89.9, "COLO 800": 83.1}